# According to PubChem BioAssay (NCATS):
# Protein sequences, listed by entry. Tags and fused reporters are not part of them. Lines headed by an entry give the natural chain unless they say otherwise; changes in a name come on top.
# UniProt P10828: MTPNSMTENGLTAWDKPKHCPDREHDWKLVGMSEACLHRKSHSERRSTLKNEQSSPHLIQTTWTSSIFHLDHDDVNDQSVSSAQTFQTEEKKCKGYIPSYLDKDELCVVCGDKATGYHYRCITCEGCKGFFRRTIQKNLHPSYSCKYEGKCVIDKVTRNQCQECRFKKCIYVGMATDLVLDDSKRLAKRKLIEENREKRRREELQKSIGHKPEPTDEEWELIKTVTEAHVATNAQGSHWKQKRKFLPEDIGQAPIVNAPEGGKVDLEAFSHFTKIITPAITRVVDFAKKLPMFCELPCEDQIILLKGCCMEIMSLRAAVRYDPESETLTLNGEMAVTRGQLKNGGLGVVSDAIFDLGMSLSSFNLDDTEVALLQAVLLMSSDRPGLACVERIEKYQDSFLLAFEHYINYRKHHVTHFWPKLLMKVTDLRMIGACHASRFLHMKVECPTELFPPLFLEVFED
# UniProt P19793: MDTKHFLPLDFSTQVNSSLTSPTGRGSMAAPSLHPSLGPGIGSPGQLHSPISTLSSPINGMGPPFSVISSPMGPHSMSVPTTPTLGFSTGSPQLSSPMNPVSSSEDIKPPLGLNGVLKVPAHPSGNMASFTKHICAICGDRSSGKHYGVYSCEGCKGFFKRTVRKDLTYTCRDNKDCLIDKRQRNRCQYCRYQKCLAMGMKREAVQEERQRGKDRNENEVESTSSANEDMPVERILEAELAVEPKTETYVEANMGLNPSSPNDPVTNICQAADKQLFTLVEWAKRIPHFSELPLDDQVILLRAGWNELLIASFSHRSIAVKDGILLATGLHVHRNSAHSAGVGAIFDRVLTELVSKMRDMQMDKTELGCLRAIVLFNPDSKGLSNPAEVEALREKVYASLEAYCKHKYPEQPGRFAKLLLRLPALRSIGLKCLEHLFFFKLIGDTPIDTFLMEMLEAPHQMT
# UniProt Q07869: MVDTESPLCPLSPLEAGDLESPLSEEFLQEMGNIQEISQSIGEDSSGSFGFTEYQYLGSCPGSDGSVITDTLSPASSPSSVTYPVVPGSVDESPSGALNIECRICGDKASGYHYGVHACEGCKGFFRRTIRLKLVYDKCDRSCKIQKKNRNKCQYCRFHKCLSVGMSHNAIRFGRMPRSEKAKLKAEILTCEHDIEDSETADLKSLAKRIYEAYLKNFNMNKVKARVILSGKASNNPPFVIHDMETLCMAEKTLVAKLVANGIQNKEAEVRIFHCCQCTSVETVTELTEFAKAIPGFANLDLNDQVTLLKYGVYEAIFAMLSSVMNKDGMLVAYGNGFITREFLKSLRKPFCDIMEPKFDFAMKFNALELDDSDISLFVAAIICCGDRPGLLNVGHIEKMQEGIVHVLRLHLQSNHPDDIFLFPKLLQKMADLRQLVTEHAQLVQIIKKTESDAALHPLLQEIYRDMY
# Several values for one entry are separate records, joined by “and”; a condition that tells them apart may be missing. Equal entries are not always repeated. For some assays here: Shown are results outside the selection of hits, which stands elsewhere. Inconclusive results are not listed. Only a part is listed here, and it is no random draw. Activity calls are given as the source filed them. Unless noted, the call rests on the fitted dose curve; in most records, active means well fitted curve in the direction sought with a large enough effect; inconclusive means small, poorly fitted or top-dose-only effect, or another doubt; inactive means no such curve, though single readings can be large; an effect the other way counts as inactive or inconclusive.
# How the values were obtained:
# [1] = molecular target: Thyroid hormone receptor beta (Homo sapiens) (UniProt P10828); test: qHTS assay for small molecule agonists of thyroid hormone receptor beta signaling (AID 588545; calls by dose curve;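 further: 0% = DMSO only and 100% = 10 nM T3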); conditions: TR-UAS-bla GripTite HEK 293, beta-lactamase ratio, agonist mode, 18 h, percent of T3 response, DMSO as zero; at 76.7 µM (top of the series)
# Summary of the method: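 Efficacy and EC50 values derive from Hill fits of qHTS titration data, normalized to 10 nM T3 and DMSO-only wells. HEK 293 reporter cells were stimulated for 18 hrs at 37 C, with beta-lactamase activity measured by CCF4 fluorescence.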
# [2] = qHTS assay for small molecule antagonists of retinoid X receptor alpha signaling (AID 588546; active means well fitted inhibition curve with a large enough effect in the signal ratio, with a control signal flat, not every such curve was filed as active; the % refers to the signal ratio;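 further: cells stimulated with 9-cis-retinoic acid as agonist; on the % scale 0 is the no-effect control and ±100 the full control effect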); conditions: HEK293T RXRa-UAS-bla, beta-lactamase ratio, antagonist mode; measured here: W530 green channel, cytotoxicity proxy
# Summary of the method: (§1)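 Beta-lactamase reporter inhibition, read as CCF4 fluorescence ratio (ex 405, em 460/530 nm) after 2 h at RT. HEK293T UAS-bla cells, 2500/well, were stimulated with 9-cis-RA at 500 or 100 nM final alongside test compound for 18 h at 37 C.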
# [3] = molecular target: Retinoic acid receptor RXR-alpha (Homo sapiens) (UniProt P19793); test: as above; conditions: HEK293T RXRa-UAS-bla, beta-lactamase ratio, antagonist mode
# Summary of the method: as §1
# [4] = molecular target: Thyroid hormone receptor beta (Homo sapiens) (UniProt P10828); test: qHTS assay for small molecule antagonists of thyroid hormone receptor beta signaling (AID 588547; active means well fitted inhibition curve with a large enough effect in the signal ratio, with a control signal flat, not every such curve was filed as active; the % refers to the signal ratio;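 further: cells stimulated with 0.4 nM T3 agonist during compound exposure; on the % scale 0 is the no-effect control and ±100 the full control effect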); conditions: TR-UAS-bla HEK293, beta-lactamase ratio, antagonist mode, 18 h
# Summary of the method: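 TR-UAS-bla GripTite HEK293 cells in 2% charcoal/dextran FBS medium were preincubated 4 h at 37 C, given compound (0.59 nM to 92 uM) plus 0.4 nM T3 (final) for 18 h, then CCF4 for 2 h at RT; Hill fit gave IC50.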
# [5] = molecular target: Peroxisome proliferator-activated receptor alpha (Homo sapiens) (UniProt Q07869); test: qHTS assay for small molecule agonists of the peroxisome proliferator-activated receptor alpha (PPARalpha) signaling pathway (AID 651778); conditions: PathHunter PPARalpha complementation, chemiluminescence, 6 h; stronger effect = higher value; further: % of control where 0% means no effect
# Summary of the method: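 Cells plated at 2,000/well and held overnight at 37 C, 5% CO2, then compound added by pin tool for 6 hr; after PathHunter detection reagent and 60 min at room temperature, chemiluminescence from enzyme complementation was read.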
# [6] = qHTS assay for small molecule antagonists of the retinoid-related orphan receptor gamma (ROR-gamma) signaling pathway - cell viability counter screen (AID 720652; active means well fitted curve in the direction sought with a large enough effect in the repeat runs; an effect the other way counts as inactive or inconclusive;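 further: CHO reporter cells with doxycycline-induced ROR-gamma expression; compound exposure lasted 16 hr before ATP read; on the % scale 0 is the no-effect control and ±100 the full control effect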); conditions: RORgamma reporter cell line viability counter screen; at 92.2 µM (top of the series)
# Summary of the method: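 CHO RORE-LUC/TET-ROR line, 1,000 cells/well, 37 C 5% CO2 5 hr; cpd or DMSO + doxycycline induction, 16 hr. CellTiter-Glo, 30 min RT, luminescence = ATP content.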
# [7] = qHTS assay for cell viability of the p53RE-bla HCT-116 cell line (AID 743292); conditions: p53RE-bla HCT-116 viability, ATP luminescence, 16 h; at 95 µM (top of the series); further: on the % scale 0 is the no-effect control and ±100 the full control effect; nearly all actives have a fitted effect of over 55% in size
# Summary of the method: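 Readout: CellTiter-Glo luminescence after 30 min RT. Treatment: compounds in DMSO, 16 h, 37 C. Cells: CellSensor p53RE-bla HCT-116, 4,000/well, preincubated 5 h.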
# [8] = qHTS assay for measurement of the activity of small molecule inhibitors on Zika virus induced Caspase-3 activity in human astrocytoma cells (AID 1224859); conditions: SNB-19 ZIKV-induced caspase-3/7, luminescence, 6 h; at 92.8 µM (top of the series);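 further: plate controls were ZIKV-infected untreated cells for no effect and uninfected cells for full effect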
# Summary of the method: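 A cell-based luminescent caspase-3/7 assay used SNB-19 cells infected with ZIKV (2 FFU/cell) for 6 h following 1 h compound pretreatment.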
# [9] = NS1 protein of Zika virus - qHTS assay to identify small molecule inhibitors in human HEK 293 cells (AID 1347053); conditions: HEK293 ZIKV MR766 infection, NS1 TR-FRET, 24 h; at 92.8 µM (top of the series);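 further: plate controls were infected untreated cells for no effect and uninfected cells for full effect; nearly all actives have a fitted effect of over 55% in size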
# Summary of the method: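 In this cell-based screen, HEK 293 cultures received compound for one hour before Zika MR766 at MOI = 0.5. NS1 was quantified 24 hours later by TR-FRET, normalized to virus-free wells and infected wells.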
# [10] = qHTS of pediatric cancer cell lines to identify multiple opportunities for drug repurposing: Primary screen for TC32 cells (AID 1347089); conditions: TC32 Ewing sarcoma viability, CellTiter-Glo luminescence, 48 h; at 92.2 µM (top of the series); further: on the % scale 0 is the no-effect control and ±100 the full control effect; nearly all actives have a fitted effect of over 60% in size
# Summary of the method: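 qHTS, TC32, 48 h drug treatment, CellTiter-Glo luminescence as a proxy for metabolically active cells; primary top concentration 46 µM (MIPE 11-pt, NPC 8-pt); confirmatory 11-pt.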
# [11] = qHTS of pediatric cancer cell lines to identify multiple opportunities for drug repurposing: Primary screen for DAOY cells (AID 1347090); conditions: DAOY medulloblastoma viability, CellTiter-Glo luminescence, 48 h; at 92.7 µM (top of the series);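 further: plate controls were DMSO for no effect and bortezomib for full effect; nearly all actives have a fitted effect of over 55% in size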
# Summary of the method: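 Eight- or eleven-point concentration series, 48 h treatment at 37 degrees C in growth media; readout CellTiter-Glo luminescence. Potency and efficacy were taken from the concentration-response curves.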
# [12] = qHTS of pediatric cancer cell lines to identify multiple opportunities for drug repurposing: Primary screen for SK-N-MC cells (AID 1347093); conditions: SK-N-MC viability, CellTiter-Glo luminescence, 48 h; at 92.7 µM (top of the series);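 further: plate controls were DMSO neutral control for no effect and bortezomib for full effect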
# Summary of the method: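 Metabolically active cells were quantified by ATP-dependent luminescence (CellTiter-Glo, 15 min at room temperature) following 48 h treatment. Cells had been plated at 500-1,000 per well and settled for 5 h beforehand.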
# [13] = qHTS of pediatric cancer cell lines to identify multiple opportunities for drug repurposing: Primary screen for SK-N-SH cells (AID 1347098); conditions: SK-N-SH viability, CellTiter-Glo luminescence, 48 h; at 115 µM (top of the series);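 further: DMSO served as neutral control and bortezomib at 2.3 µM as positive control; on the % scale 0 is the no-effect control and ±100 the full control effect; nearly all actives have a fitted effect of over 65% in size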
# Summary of the method: (§2)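 Cells (500-1,000/well) rested 5 h, then received compounds for 48 h; metabolically active cells were measured by CellTiter-Glo luminescence. Final concentrations spanned up to 46 µM (MIPE, 11-point) or 0.59 nM-46 µM (NPC, 8-point) in primary screens, 11-point in follow-ups.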
# [14] = qHTS of pediatric cancer cell lines to identify multiple opportunities for drug repurposing: Primary screen for OHS-50 cells (AID 1347103); conditions: OHS-50 osteosarcoma viability, CellTiter-Glo luminescence, 48 h; at 116 µM (top of the series);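 further: plate controls were DMSO neutral control for no effect and bortezomib positive control for full effect; nearly all actives have a fitted effect of over 40% in size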
# Summary of the method: as §2
# [15] = qHTS of pediatric cancer cell lines to identify multiple opportunities for drug repurposing: Primary screen for MG 63 (6-TG R) cells (AID 1347105); conditions: MG 63 (6-TG R) viability, CellTiter-Glo, 48 h; at 92.7 µM (top of the series); further: on the % scale 0 is the no-effect control and ±100 the full control effect; nearly all actives have a fitted effect of over 50% in size
# Summary of the method: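 CRCs from 8- or 11-point titrations (lowest final 0.59 nM NPC, 0.78 nM MIPE). Cell viability: CellTiter-Glo after 48 h incubation, 15 min room-temperature development, luminescence imaging.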
# [16] = qHTS of pediatric cancer cell lines to identify multiple opportunities for drug repurposing: Primary screen for Rh30 cells (AID 1347107); conditions: Rh30 rhabdomyosarcoma viability, CellTiter-Glo luminescence, 48 h; at 92.7 µM (top of the series); further: on the % scale 0 is the no-effect control and ±100 the full control effect; nearly all actives have a fitted effect of over 75% in size
# Summary of the method: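 Cells (500-1,000/well) in growth media were settled 5 h at 37 degrees C, then given compounds for 48 h. Viability was read as CellTiter-Glo luminescence. Primary runs used MIPE at 11 points (0.78 nM-46 µM) and NPC at 8 points (0.59 nM-46 µM); follow-ups used 11 points.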
# [17] = qHTS to identify inhibitors of the type 1 interferon - major histocompatibility complex class I in skeletal muscle: primary screen against the NCATS Pharmaceutical Collection (AID 1347407); conditions: human skeletal muscle cells, IFN-b-induced MHC-I HiBiT luminescence, 24 h; at 92.2 µM (top of the series);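 further: luminescence of HiBiT knocked into endogenous HLA-B as interferon-induced MHC class I level; on the % scale 0 is the no-effect control and ±100 the full control effect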
# Summary of the method: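 Luminescence from HiBiT-tagged endogenous HLA-B*08:01 served as the read-out of IFN-beta-induced MHC class I in CRISPR-engineered C25cl48 myoblasts. Cells received 4 ng/ml IFN-beta plus compound (high final 46 uM, […]) for 24 h.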
compound,measurement,setting,value
Nc1ccc(N)c([N+](=O)[O-])c1,activation,[1],inactive: 2.02% and inactive: -11.3%
same,max response,[2],-14.2%
same,max response,[3],inactive: 14.7%
same,activity change % (negative = inhibition),[4],inactive: 5.88% and inactive: 10.3%
same,max response,[5],inactive: -3.8% and inactive: -4.45%
same,"activity change, negative = cytotoxicity",[6],inactive: 3.38%
same,"activity change, negative = cytotoxicity",[7],inactive: 8.47% and inactive: -15.4%
same,"activity change, negative = inhibition",[8],inactive: -7.12%
same,"activity change, negative = inhibition",[9],inactive: 46.9%
same,"activity change, negative = cytotoxic",[10],inactive: -9.55%
same,"activity change, negative = cytotoxic",[11],inactive: -22.8%
same,"activity change, negative = cytotoxic",[12],inactive: -36.5%
same,"activity change, negative = cytotoxic",[13],inactive: -20.6%
same,"activity change, negative = cytotoxic",[14],inactive: 38.9%
same,"activity change, negative = cytotoxic",[15],inactive: -6.33%
same,"activity change, negative = cytotoxic",[16],inactive: 9.11%
same,"activity change, negative = inhibition",[17],inactive: -21%
